Results published in the supplement of paper PMC11348887.
Where a name gives a salt, the structure may show the parent alone. The list shows a part of the results. Small differences around the control level are noise.

What follows are compounds tested on hPSC-derived cortical neurons (WA09) (assay: nucleus roundness z-score vs screen plate; higher = rounder nuclei (more mature)). Conditions: 5 µM; treatment: days 7-14 after plating, readout day 21.

Structure (SMILES) | nucleus roundness z-score
O=c1cc(-c2ccccc2)oc2cc(O)cc(O)c12 [Chrysin] | 0.576
CC1(C)S[C@@H]2[C@H](NC(=O)[C@H](NC(=O)N3CCNC3=O)c3ccccc3)C(=O)N2[C@H]1C(=O)O [Azlocillin sodium salt] | 1.34
COc1ncc(-c2ccc3nccc(-c4ccnnc4)c3c2)cc1NS(=O)(=O)c1ccc(F)cc1F | -5.63
COc1ccc(Cn2ccc3ccc(C(=O)NO)cc32)cc1 | 0.289
Cc1[nH]c(/C=C2\C(=O)Nc3ccc(S(=O)(=O)N(C)c4cccc(Cl)c4)cc32)c(C)c1C(=O)N1CCN(C)CC1 | 0.958
CC(C)CCN1c2nc(Nc3cc(F)c(O)c(F)c3)ncc2N(C)C(=O)C1C (centres undefined) | 0.664
CCCCCCOC(=O)NC(=N)c1ccc(NCc2nc3cc(C(=O)N(CCC(=O)OCC)c4ccccn4)ccc3n2C)cc1 [Dabigatran Etexilate] | -0.847
CCN(c1cc(C#CCN2CCOCC2)cc(C(=O)NCc2c(C)cc(C)[nH]c2=O)c1C)[C@H]1CC[C@H](N(C)CCOC)CC1 | 0.651
O=C(Oc1cc(S(=O)(=O)c2ccccc2)ccc1[N+](=O)[O-])c1ccc(Cl)cc1 | -0.46
CC(C)C[C@H](NC(=O)CNC(=O)c1cc(Cl)ccc1Cl)B(O)O | -7.8
C[C@H](N)[C@H](O)c1cccc(O)c1 [Metaraminol Bitartrate] | -0.227
CC1(C)[C@H](C(=O)O)N2C(=O)C[C@H]2S1(=O)=O [Sulbactam] | 0.35
COC(=O)c1ccc([C@H]2c3[nH]c4ccccc4c3C[C@H](C(=O)OC)N2C(=O)CCl)cc1 | -2.96
C=C1/C(=C\C=C2/CCC[C@]3(C)[C@@H]([C@H](C)CCCC(C)C)CC[C@@H]23)C[C@@H](O)C[C@@H]1O [Alfacalcidol] | -0.898
O=c1ccc2ccc(O)c(O)c2o1 [Daphnetin] | 1.38
CCCCN1CCCC[C@H]1C(=O)Nc1c(C)cccc1C [Levobupivacaine HCl] | 0.564
O=C(Nc1ccccc1-c1cn2c(CN3CCNCC3)csc2n1)c1cnc2ccccc2n1 | -1.83
N#CC[C@H](C1CCCC1)n1cc(-c2ncnc3[nH]ccc23)cn1 | 0.395
CCCNC(C)C(=O)Nc1ccccc1C (centres undefined) [Prilocaine] | -0.327
CNc1nc(-c2ccc3c(N)n[nH]c3c2)cc(N2C[C@@H](C(=O)NC3CCCCC3)CC[C@H]2C)n1 | -0.915

Structure (SMILES) | nucleus roundness z-score
COCC(=O)NC/C=C/c1ccc2ncnc(Nc3ccc(Oc4ccc(C)nc4)c(C)c3)c2c1 | -0.973
Clc1ccc2c(c1)CCc1cccnc1C2=C1CCNCC1 [Desloratadine] | 0.778
CN(C)C(=N)NC(=N)N [Metformin HCl] | 0.355
COc1ccc(CNCc2cccc3ccccc23)cc1 | 0.178
CC(C)OC(=O)C(C)(C)Oc1ccc(C(=O)c2ccc(Cl)cc2)cc1 [Fenofibrate] | 0.0568
Cn1cc(-c2ccc3c(c2)CCN3C(=O)Cc2cccc(C(F)(F)F)c2)c2c(N)ncnc21 | -1.31
Cc1cn([C@H]2C=C[C@@H](CO)O2)c(=O)[nH]c1=O [Stavudine (d4T)] | 0.363
COc1cc2ncnc(Nc3cccc(Cl)c3)c2cc1OC [AG-1478 (Tyrphostin AG-1478)] | -0.11
CC(C)N(CCC(=O)c1ccc2ccccc2c1)Cc1ccccc1 | -5.72
COCCCN1CCC(NC(=O)c2cc(Cl)c(N)c3c2OCC3)CC1 [Prucalopride Succinat] | -0.953
N=C(N)Nc1ccc(C(=O)Oc2ccc3cc(C(=N)N)ccc3c2)cc1 [Nafamostat Mesylate] | 0.396
O=C1C2CC3CC1CC(O)(C3)C2 [Idramantone] | 0.251
CSc1nc2cc(Cl)c(Oc3cccc(Cl)c3Cl)cc2[nH]1 [Triclabendazole] | 0.107
O=C(c1ccccc1)c1ccc2n1CCC2C(=O)O (centres undefined) [Ketorolac] | 0.485
Cc1cnc(-c2cc(N3CCN(C(=O)CCS(C)(=O)=O)CC3)ncc2Cl)c(C)c1 | 0.159
CC(C)OC(=O)C1=CN(C(=O)c2ccc(F)c(F)c2)CC(C)(C)c2c1[nH]c1ccccc21 | 1.17
OCCn1cc(-c2cnc3nnn(Cc4ccc5ncccc5c4)c3n2)cn1 | 0.887
O=C(O)C1=CO[C@@H](O[C@@H]2O[C@H](CO)[C@@H](O)[C@H](O)[C@H]2O)[C@@H]2C(CO)=CC[C@H]12 [Geniposidic acid] | 0.14
NCC[C@H](O)C(=O)N[C@@H]1C[C@H](N)[C@@H](O[C@H]2O[C@H](CN)[C@@H](O)[C@H](O)[C@H]2O)[C@H](O)[C@H]1O[C@H]1O[C@H](CO)[C@@H](O)[C@H](N)[C@H]1O [Amikacin disulfate] | 0.992

Given as a markdown table: 2 of the compounds above

| Structure (SMILES) | nucleus roundness z-score |
| --- | --- |
| COc1ccc(Cn2ccc3ccc(C(=O)NO)cc32)cc1 | 0.289 |
| CCCNC(C)C(=O)Nc1ccccc1C (centres undefined) [Prilocaine] | -0.327 |
